According to PMC11281990:
These are yes or no findings as the source states them, for the method shown. In cells and extracts the contact can be indirect.

Biological target: T1, Z-DNA/RNA binding protein 1 (rat (endogenous in Sprague Dawley hippocampal neurons)) (UniProt Q8VDA5)
T1 sequence: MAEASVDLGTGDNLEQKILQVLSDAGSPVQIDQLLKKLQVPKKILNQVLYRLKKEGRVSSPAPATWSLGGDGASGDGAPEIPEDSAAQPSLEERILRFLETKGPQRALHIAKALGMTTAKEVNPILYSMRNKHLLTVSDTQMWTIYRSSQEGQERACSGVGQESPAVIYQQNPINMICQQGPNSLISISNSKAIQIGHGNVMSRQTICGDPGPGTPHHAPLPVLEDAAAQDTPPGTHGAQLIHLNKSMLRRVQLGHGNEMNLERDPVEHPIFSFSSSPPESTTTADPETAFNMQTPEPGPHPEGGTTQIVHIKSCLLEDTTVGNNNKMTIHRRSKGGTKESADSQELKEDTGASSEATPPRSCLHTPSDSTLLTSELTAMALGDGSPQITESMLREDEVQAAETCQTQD
Assay: co-IP; lysate of rat hippocampal neurons primed with sevoflurane (3%, 6 h); precipitated with 1 ug anti-ZBP1 antibody and protein A/G PLUS-Agarose overnight at 4 C, washed five times with M2 buffer; immunoblot for ADAR1-P150, ADAR1-P110, ADAR2, ADAR3

Molecule	binding
ADAR2 (from UniProt P51400 1-711)	no binding
ADAR3 (protein, UniProt P97616 1-746) MASVLGSGRGSGGLSSQLKCKSKRRRRRRSKRKDKVSILSTFLAPFKYLSPGTTNTEDEDNLSTSSAEVKENRNVSNLGTRPLPPGDWARGGSTPSVKRKRPLEEGNGGHFCKLQLIWKKLSWSMTPKNALVQLHELKPGLQYRMVSQTGPVHAPVFAVAVEVNGLTFEGTGPTKKKAKMRAAEMALKSFVQFPNAFQAHLAMGSSTSPCTDFTSDQADFPDTLFKEFEPSSRNEDFPGCCPVDTEFLSSAYRRGRLLYHTLDLMGQALPDRSRLAPGALGERNPVVVLNELRSGLRYVCLSETAEKPRVKSFVMAVCVDGRTFEGSGRSKKLAKGQAAQAALQALFDIRLPGHIPSRSKSNLLPQDFADSVSQLVTQKFRELTVGLTSVYARHKTLAGIVMTKGLDTKQAQVIVLSSGTKCISGEHISDQGLVVNDCHAEIVARRAFLHFLYTQLELHLSKHQEDPERSIFIRVKEGGYRLRENILFHLYVSTSPCGDARLNSPYEITIDLNSSKHIVRKFRGHLRTKIESGEGTVPVRGPSAVQTWDGILLGEQLVTMSCTDKIASWNVLGLQGALLCHFIEPVYLHSIIVGSLHHTGHLARVMSHRMEGIGQLPASYRQNRPLLSGVSNAEARQPGKSPHFSANWVVGSADLEIINATTGKRSCGGSSRLCKHVFSARWARLHGRLSTRIPGHGDTPSMYCEAKRGAHTYQSVKQQLFKAFQKAGLGTWVRKPPEQDQFLLSL	no binding
